Results as given in article PMC4350430.

Chains of the proteins cited; added tags and fusions are not shown. Lines headed by an entry give the natural chain unless they say otherwise; changes in a name come on top.
UniProt O04294: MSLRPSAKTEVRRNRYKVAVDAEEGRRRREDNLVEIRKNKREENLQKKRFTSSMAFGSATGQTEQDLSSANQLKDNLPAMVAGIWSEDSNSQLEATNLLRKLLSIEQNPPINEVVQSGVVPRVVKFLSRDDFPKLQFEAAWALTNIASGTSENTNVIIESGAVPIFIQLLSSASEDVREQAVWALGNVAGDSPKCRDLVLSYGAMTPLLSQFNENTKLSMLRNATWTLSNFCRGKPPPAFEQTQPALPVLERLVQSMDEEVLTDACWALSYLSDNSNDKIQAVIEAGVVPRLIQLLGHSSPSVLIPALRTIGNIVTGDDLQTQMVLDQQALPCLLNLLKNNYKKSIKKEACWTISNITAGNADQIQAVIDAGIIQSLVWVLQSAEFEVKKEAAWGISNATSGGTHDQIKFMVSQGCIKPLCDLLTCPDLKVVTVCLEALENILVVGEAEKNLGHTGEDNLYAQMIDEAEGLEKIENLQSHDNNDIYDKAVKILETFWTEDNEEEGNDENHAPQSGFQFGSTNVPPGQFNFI
UniProt Q29PT3: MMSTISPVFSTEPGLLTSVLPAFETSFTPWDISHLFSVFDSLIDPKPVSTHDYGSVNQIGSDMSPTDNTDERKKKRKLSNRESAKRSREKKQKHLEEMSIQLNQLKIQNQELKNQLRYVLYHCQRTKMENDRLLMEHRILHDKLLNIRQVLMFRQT

Columns and labels:
[1] = target: T1, GFP-tagged importin-α9 (Arabidopsis thaliana) (UniProt F4KF65); experiment: co-IP; GFP- or YFP-tagged importin-α co-expressed with StrepII-3xHA (HS)-tagged cargo in N. benthamiana, 48 h; importin-α IP-ed (GFP-Trap_A beads), co-purifying HS protein detected by α-HA western blot; 50 mM Tris, 150 mM NaCl, 10% glycerol, 1 mM EDTA, 5 mM DTT, pH 7.5, 4°C 2 h
T1 sequence: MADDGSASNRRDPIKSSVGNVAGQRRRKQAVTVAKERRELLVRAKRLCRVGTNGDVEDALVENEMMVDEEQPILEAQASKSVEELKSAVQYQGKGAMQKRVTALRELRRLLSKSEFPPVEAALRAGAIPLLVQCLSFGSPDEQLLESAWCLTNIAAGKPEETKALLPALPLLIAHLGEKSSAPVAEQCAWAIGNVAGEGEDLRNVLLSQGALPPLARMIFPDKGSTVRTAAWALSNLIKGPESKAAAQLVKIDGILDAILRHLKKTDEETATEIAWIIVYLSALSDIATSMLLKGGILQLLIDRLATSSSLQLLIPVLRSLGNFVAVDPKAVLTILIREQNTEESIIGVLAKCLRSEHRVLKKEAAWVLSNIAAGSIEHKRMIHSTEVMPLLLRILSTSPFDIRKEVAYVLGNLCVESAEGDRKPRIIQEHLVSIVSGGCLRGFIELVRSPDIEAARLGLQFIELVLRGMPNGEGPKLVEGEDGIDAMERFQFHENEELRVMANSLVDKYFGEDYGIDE

[2] = target: MOS6–YFP^C (Arabidopsis thaliana) (UniProt O04294); experiment: split reporter; BiFC: MOS6–YFP^C co-expressed with YFP^N-tagged cargo in epidermal cells of N. benthamiana, nuclei imaged 48 h post infiltration; read-out: speckles at the nuclear rim (a nucleoplasmic YFP signal was seen with all pairs)

Q: For “StrepII-3xHA (HS)-tagged HaRxL106 (Hyaloperonospora arabidopsidis)”, which binding [1] is on record?
A: no binding

Q: Which binding [2] does the source give for YFP^N–bZIP5 (from UniProt Q29PT3) here?
A: binds

Results are given in words; binding and its absence hold for the method and conditions named. In cells and extracts the contact can be indirect. For some assays here: A result given as binding can be weak or reduced; the word gives no strength. For some assays here: Where a sequence is shown, tags or fusion partners need not be part of it.
